Measurements published in PubChem BioAssay AID540276 (National Center for Advancing Translational Sciences (NCATS), 2011).
Several values for one entry are separate records, joined by “and”; a condition that tells them apart may be missing. Equal values may be shown once. Screen size: about 300,000 compounds; about 5,400 (1.8%) were called active. The inconclusive results got no clear call from the source; some entries with a clear call stand among them for comparison. The call rests on the fitted dose curve; tested in HEK293 cells. A potency beside an inconclusive call is a rough fit, not a confirmed value.

Assay: qHTS for inhibitors of binding or entry into cells for Marburg Virus
Settings: Marburg virus pseudotyped entry inhibition, cell reporter; activity change, negative = inhibition: at 37.8 µM (top of the series) unless noted
On the % scale 0 is the no-effect control and ±100 the full control effect; potency means the concentration at half of the fitted maximal effect.

SMILES | Potency | activity change, negative = inhibition
CN(CC(=O)Nc1cccc(F)c1)C(=O)c1cccc(S(=O)(=O)N2CCN(c3ccccc3)CC2)c1 | inconclusive: 35.5 µM [inhibitor, single point] | 
CCOC(=O)C1CC(=O)c2ccccc2C1c1ccccc1 (centres undefined) | inconclusive: 10 µM [inhibitor, partial curve, poor fit] | 
Cc1ccc(NCc2ccncc2)c(Br)c1 |  | inactive: -0.723%
CC(=O)Nc1cccc(C(=O)OC(C)C(=O)NC2CCCc3ccccc32)c1 (centres undefined) |  | inactive: 12.2%
Cc1c(Cc2ccc3c(c2)OCO3)sc(NC(=O)c2cccc3ccccc23)c1C(N)=O |  | inactive: -34.6%
Cc1sc2ncn(CC(=O)N3CCN(c4ccccc4F)CC3)c(=O)c2c1S(=O)(=O)N1CCOCC1 |  | inactive: 3.59% [at 46.1 µM]
COc1ccc(CNC(=O)CN(C(=O)CCC(=O)Nc2ccccn2)c2cc(C)ccc2C)cc1 |  | inconclusive: 48.6% [activator] [at 46.1 µM]
CCOc1ccc(C(=O)Nc2ccc(N3CCN(C)CC3)cc2)cc1[N+](=O)[O-] | inconclusive: 23.1 µM [inhibitor, partial curve, poor fit] | 
CC(C)CN1C(=O)C(=O)N(CC(=O)Nc2cc(Cl)ccc2Oc2ccccc2)C1=O | inconclusive: 39.8 µM [inhibitor, partial curve, poor fit] | 
c1ccc(N2CC3CCc4ccccc4C3=N2)cc1 (centres undefined) | inconclusive: 35.5 µM [activator, single point] | 
CC1(C)Cc2c(C#N)c(N3CCN(C(=O)c4ccco4)CC3)nc(Cc3ccccc3)c2CO1 | inconclusive: 35.5 µM [inhibitor, single point] | 
Cc1cccc2sc(N(CCCN(C)C)C(=O)c3sc4ccccc4c3Cl)nc12 | inconclusive: 0.794 µM [inhibitor, full curve, poor fit] | 
Cc1nc2nc(C)c(NS(=O)(=O)c3ccc4c(c3)CCCC4)c(=O)n2[nH]1 | inconclusive: 25.1 µM [activator, partial curve, poor fit] | 
CN(C)c1ccc(N=Cc2nc(-c3ccccc3)oc2OC(=O)c2cccc(Br)c2)cc1 |  | inactive: -16.5%
CSCCC(C(=O)OCC(=O)c1ccc(C)c(C)c1)N1C(=O)c2ccccc2C1=O (centres undefined) | inconclusive: 4.47 µM [inhibitor, single point] | 
CCOC(=O)c1cc(-c2ccc(C)cc2)n(CC(=O)Nc2cc(C)ccc2C)c1C |  | inactive: -9.39% [at 46.1 µM]
COCCN(C)Cc1cn(-c2ccc(F)cc2F)nc1-c1ccccc1C | inconclusive: 22.4 µM [inhibitor, single point] | 
CCCN(CC)c1ncnc2[nH]ncc12 | inconclusive: 35.5 µM [inhibitor, single point] | 
Cc1ccc(-c2csc(NC(=O)Cc3cccs3)n2)cc1C |  | inactive: -8.89%
Nc1nc(Nc2cccc(F)c2)nc(NCc2ccco2)c1[N+](=O)[O-] | inconclusive: 11.2 µM [inhibitor, partial curve, poor fit] | 
c1ccc(CCc2nn3c(Cn4nnc5ccccc54)nnc3s2)cc1 | inconclusive: 0.326 µM [inhibitor, partial curve, poor fit] | 
COCCN(C(=S)Nc1ccc(OC)cc1)C1CCN(C(C)C)CC1 |  | inactive: 9.92%
Cc1nn(C)cc1C1C(C#N)=C(N)N(c2ccc(F)c([N+](=O)[O-])c2)C2=C1C(=O)CCC2 (centres undefined) |  | inactive: -10.7%

SMILES | Potency | activity change, negative = inhibition
COc1ccc2cc(C(=O)C3CCCN(C(=O)c4cccnc4)C3)ccc2c1 (centres undefined) | inconclusive: 6.31 µM [inhibitor, single point] | 
COc1ccccc1Nc1nc2nonc2[nH]c1=O | inconclusive: 5.62 µM [activator, single point] | 
COc1ccc(-c2cc(C(=O)Nc3c(C(=O)c4ccc(C)c(F)c4)oc4ccccc34)no2)cc1 | inconclusive: 3.98 µM [activator, single point] | 
O=C(NNC(=S)Nc1ccccc1)c1ccco1 | inconclusive: 29.1 µM [activator, single point] | 
O=C(COC(=O)CCCN1C(=O)c2ccccc2C1=O)Nc1ncc(Cl)cc1Cl | inconclusive: 1 µM [activator, full curve, poor fit] | 
CC(=C\c1ccco1)/C=C(\C#N)C(=O)NCCc1c[nH]c2ccccc12 | inconclusive: 3.55 µM [inhibitor, single point] | 
Cc1nnc(NC(=O)CCn2c(=O)oc3ccccc32)s1 |  | inactive: -4% [at 46.1 µM]
CN1CCN(CCCCOc2cccc3ccccc23)CC1 | inconclusive: 35.5 µM [inhibitor, single point] | 
COc1ccc(OC2C(=O)N(CCc3ccc(OC)c(OC)c3)C2c2ccc3c(c2)OCO3)cc1 (centres undefined) | inconclusive: 10 µM [inhibitor, partial curve, poor fit] | 
CC(C)(C)OC(=O)N1CCC(c2c(C(=O)NCC3CCN(C4CCCC4)C3)cnn2-c2ccc(F)cc2)CC1 (centres undefined) | inconclusive: 0.631 µM [inhibitor, full curve, poor fit] | 
O=C(c1ccccc1)N1CCC(c2nc3c(nnn3Cc3ccccc3Cl)c(=O)[nH]2)CC1 |  | inactive: -14.8%
C/C(N)=C(/C#N)C(=O)COC(=O)c1cccc2ccccc12 |  | inactive: 9.4%
COc1ccc(-c2oc3ncnc(NCCCO)c3c2-c2ccc(OC)cc2)cc1 | inconclusive: 35.5 µM [inhibitor, partial curve, poor fit] | 
CCOP(=O)(c1ccccc1)C1(C#N)CCCC1 (centres undefined) | inconclusive: 11.2 µM [activator, partial curve] | 
CC(C)c1ccc(C2NC(=O)c3ccccc3O2)cc1 (centres undefined) | inconclusive: 5.62 µM [activator, single point] | 
COc1cccc(CNn2c(-c3cccc(C)c3)nc3ccccc3c2=O)c1 | inconclusive: 20.6 µM [inhibitor, partial curve, poor fit] | 
O=C1NC(=O)N(Cc2ccccc2)C(=O)/C1=C\C=C\c1ccco1 | inconclusive: 35.5 µM [inhibitor, single point] | 
CCOc1ccc(CCNC(=O)C2CCCN(c3nn4c(=O)cc(C)nc4s3)C2)cc1OCC (centres undefined) | inconclusive: 35.5 µM [inhibitor, single point] | 
CCC(=O)Nc1nc2ccc3sc(C)nc3c2s1 | inconclusive: 35.5 µM [inhibitor, single point] | 
CCN(CC(=O)Nc1ccc(NC(C)=O)cc1)C(=O)c1cc(CN2C(=O)c3ccccc3C2=O)ccc1OC |  | inactive: -12.9%
CCOC(=O)C1CCN(C(=O)c2ccc(Cl)c(Cl)c2)CC1 | inconclusive: 6.31 µM [activator, partial curve, poor fit] | 
O=C(CC1C(=O)N(Cc2ccccc2)C(=S)N1CCN1CCOCC1)Nc1ccc(F)cc1 (centres undefined) |  | inactive: 6.17% [at 46.1 µM]
Cc1ccc(C(C#N)c2ccc3c(C(F)(F)F)cc(C(F)(F)F)nc3n2)cc1 (centres undefined) |  | inactive: -12%

SMILES | Potency | activity change, negative = inhibition
COc1ccc(CCNCc2ccc(OCc3ccc(Cl)nc3)c(OC)c2)cc1OC | active: 12.6 µM | 
O=C(NCc1cccs1)c1nn2cccnc2c1Cl |  | inactive: -2.7%
O=C(NNC(=O)c1ccccc1O)c1ccc(Br)cc1 | inconclusive: 35.5 µM [inhibitor, single point] | 
O=C(c1ccc(Cl)cc1)N1CCN=C1c1ccccc1 |  | inactive: -1.25%
Cc1cccc2cc(CN(Cc3ccc(F)cc3)C(=O)N3CCOCC3)c3nnnn3c12 | inconclusive: 3.26 µM [inhibitor, full curve] | 
O=C1c2cc(S(=O)(=O)NCCO)ccc2-c2ccc(S(=O)(=O)NCCO)cc21 |  | inactive: 0.0898% [at 46.1 µM]
O=S(=O)(c1cccc2c(I)cccc12)N1CCCNCC1 | inconclusive: 2.31 µM [activator, partial curve, poor fit] and inconclusive: 3.55 µM [activator, partial curve, poor fit] | 
CCOC(=O)CN(C)Cc1c[nH]c2ccccc12 |  | inactive: -2.54%
Cc1ccc(NC(=O)c2ccc3c(c2)[nH]c(=O)n3C(C)C)cc1 | inconclusive: 35.5 µM [inhibitor, single point] | 
COc1ccccc1N1CCN(C(=O)c2ccco2)CC1 | inconclusive: 17.8 µM [activator, partial curve, poor fit] | 
COC(=O)[C@@H](NC(=O)NC1CCCCC1C)C(C)C (some centres undefined) |  | inactive: 10.2% [at 46.1 µM]
Cc1ccc(Nc2cc(=O)[nH]c(=O)[nH]2)c(C)c1 | inconclusive: 6.31 µM [activator, single point] | 
C=CCn1c(-c2ccc(OC)cc2)csc1=Nc1c(C)n(C)n(-c2ccccc2)c1=O |  | inactive: -7.93%
COc1ccc(-c2c(C(F)(F)F)oc3c(CN4CCN(C)CC4)c(O)ccc3c2=O)cc1 | inactive | 
Cc1cccc(C)c1NC(=O)Cn1c(=O)n(CCC(=O)NCc2ccc3c(c2)OCO3)c(=O)c2sccc21 |  | inactive: -19.5% [at 46.1 µM]
COc1ccc(-c2cc(C(F)(F)F)n3nc(C(=O)Nc4ccc(Cl)cc4C(F)(F)F)cc3n2)cc1OC |  | inactive: -0.603% [at 46.1 µM]
Cc1cccc(C)c1NC(=O)CN(C)CC(=O)N1CC(=O)Nc2ccccc21 |  | inactive: -26.4%
CC1CCCN(C(=O)Cc2cn(Cc3cccc(Cl)c3)c3ccccc23)C1 (centres undefined) | inconclusive: 16.4 µM [inhibitor, single point] | 
CCN(CC)CCn1c(N)nc2ccccc21 | inconclusive: 16.4 µM [inhibitor, single point] | 
COc1ccc(C(=O)NCc2nnc(SC)n2Cc2ccccc2)cc1 | inconclusive: 5.62 µM [inhibitor, full curve] | 
O=C1NC(=Nc2ccccc2)/C(=C/c2ccco2)S1 |  | inactive: -15.7%
Cn1c(=O)n(Cc2ccccc2)c(=O)c2c1nc1n2CCS1 | inconclusive: 1 µM [inhibitor, partial curve, poor fit] | 
Cc1cc(N2CCC(C(=O)NC3CCCCC3)CC2)nc(-c2ccccc2)n1 |  | inactive: -7.09%
